Assay results as given in paper PMC3796546.
These are yes or no findings as the source states them, for the method shown. In cells and extracts the contact can be indirect. Some results given as binding are weak or reduced against the parent protein; the word gives no strength.

Amino acid sequences for entries named in this document (tags omitted). A change or cut given only in a name is not applied to a line headed by its entry.
UniProt Q06554: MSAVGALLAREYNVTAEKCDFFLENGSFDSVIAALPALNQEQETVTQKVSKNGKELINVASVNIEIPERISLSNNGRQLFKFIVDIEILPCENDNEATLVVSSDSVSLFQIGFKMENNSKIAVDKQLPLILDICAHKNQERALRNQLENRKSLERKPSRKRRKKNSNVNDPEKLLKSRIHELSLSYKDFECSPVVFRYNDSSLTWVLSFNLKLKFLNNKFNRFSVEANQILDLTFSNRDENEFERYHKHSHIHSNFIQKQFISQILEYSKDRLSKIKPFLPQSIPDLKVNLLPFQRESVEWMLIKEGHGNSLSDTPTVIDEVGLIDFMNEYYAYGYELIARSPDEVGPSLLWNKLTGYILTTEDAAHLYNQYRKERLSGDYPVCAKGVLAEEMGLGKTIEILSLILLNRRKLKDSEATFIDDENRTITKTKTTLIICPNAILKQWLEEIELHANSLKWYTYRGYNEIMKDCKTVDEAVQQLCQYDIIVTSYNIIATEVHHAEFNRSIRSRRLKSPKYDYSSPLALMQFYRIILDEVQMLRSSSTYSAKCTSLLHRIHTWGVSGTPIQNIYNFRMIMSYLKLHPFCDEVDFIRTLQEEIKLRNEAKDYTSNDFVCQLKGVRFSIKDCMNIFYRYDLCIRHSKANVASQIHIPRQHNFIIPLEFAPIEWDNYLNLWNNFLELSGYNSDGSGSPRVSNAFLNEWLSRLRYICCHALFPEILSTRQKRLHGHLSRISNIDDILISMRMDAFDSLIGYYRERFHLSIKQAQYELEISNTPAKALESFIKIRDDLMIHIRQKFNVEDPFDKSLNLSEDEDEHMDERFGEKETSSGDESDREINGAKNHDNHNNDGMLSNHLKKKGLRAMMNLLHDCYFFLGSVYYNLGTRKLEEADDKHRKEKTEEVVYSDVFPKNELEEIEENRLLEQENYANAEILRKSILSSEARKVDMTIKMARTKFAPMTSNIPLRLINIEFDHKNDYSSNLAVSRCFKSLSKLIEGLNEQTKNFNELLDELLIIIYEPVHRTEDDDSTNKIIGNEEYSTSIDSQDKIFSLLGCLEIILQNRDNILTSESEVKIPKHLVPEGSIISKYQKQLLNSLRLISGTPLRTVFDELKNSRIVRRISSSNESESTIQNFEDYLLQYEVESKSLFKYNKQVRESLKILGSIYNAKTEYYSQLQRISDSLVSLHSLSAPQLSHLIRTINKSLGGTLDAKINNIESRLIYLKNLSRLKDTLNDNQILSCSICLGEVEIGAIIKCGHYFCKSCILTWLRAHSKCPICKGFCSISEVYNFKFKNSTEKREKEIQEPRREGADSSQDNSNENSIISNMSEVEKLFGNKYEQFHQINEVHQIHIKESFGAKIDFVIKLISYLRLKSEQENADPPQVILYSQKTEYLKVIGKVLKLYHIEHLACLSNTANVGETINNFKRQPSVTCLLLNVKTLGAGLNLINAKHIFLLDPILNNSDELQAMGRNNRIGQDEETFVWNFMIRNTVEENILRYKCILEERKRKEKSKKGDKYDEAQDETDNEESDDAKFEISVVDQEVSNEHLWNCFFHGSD
UniProt P25694: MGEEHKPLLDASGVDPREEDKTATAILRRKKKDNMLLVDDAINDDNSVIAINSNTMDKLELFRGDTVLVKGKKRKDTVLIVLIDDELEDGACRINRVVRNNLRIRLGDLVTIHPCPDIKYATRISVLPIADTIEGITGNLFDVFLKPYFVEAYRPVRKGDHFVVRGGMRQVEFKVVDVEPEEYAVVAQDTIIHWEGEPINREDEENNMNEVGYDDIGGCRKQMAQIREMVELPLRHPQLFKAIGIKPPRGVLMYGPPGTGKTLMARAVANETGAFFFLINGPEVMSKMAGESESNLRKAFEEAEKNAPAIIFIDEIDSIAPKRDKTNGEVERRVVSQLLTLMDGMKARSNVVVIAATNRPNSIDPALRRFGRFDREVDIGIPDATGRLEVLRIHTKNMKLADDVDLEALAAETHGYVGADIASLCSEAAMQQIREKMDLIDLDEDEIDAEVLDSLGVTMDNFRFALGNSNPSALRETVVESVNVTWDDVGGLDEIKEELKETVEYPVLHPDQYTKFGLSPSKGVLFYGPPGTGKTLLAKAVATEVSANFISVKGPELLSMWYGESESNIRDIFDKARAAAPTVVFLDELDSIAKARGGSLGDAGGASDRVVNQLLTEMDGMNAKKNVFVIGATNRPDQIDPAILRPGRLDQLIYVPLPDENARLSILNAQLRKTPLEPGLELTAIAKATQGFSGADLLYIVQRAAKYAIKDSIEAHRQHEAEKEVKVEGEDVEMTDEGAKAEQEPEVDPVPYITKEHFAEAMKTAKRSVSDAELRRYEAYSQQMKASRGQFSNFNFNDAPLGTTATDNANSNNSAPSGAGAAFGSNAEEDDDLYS

Molecular target: N-terminal 3xHA-tagged wild-type Irc20 (S. cerevisiae) (UniProt Q06554)
Experiment: co-IP; yeast crude extract in RNP buffer (0.1 M HEPES pH 7.4, 100 mM NaCl, 0.1% NP-40) on anti-HA agarose beads, 4°C, 90 minutes; HA-Irc20 derivatives precipitated, Cdc48–3xMyc detected by anti-MYC western blot

- binding: binds
Substance: cdc48-R369K-3xMYC (from UniProt P25694 1-835)
